Source: US12692532B2 (ETH ZURICH, priority 2019, dated 2026)

Legend:
[1] = general procedure: Fmoc solid-phase peptide synthesis; Rink amide ChemMatrix resin (~0.5 mmol/g); HATU / i-Pr2NEt; conditions: whole synthesis, UV 214 nm
[2] = general procedure: Fmoc solid-phase peptide synthesis; Rink amide resin; HATU / i-Pr2NEt; conditions: whole synthesis, UV 214 nm

| Substance | final HPLC purity [1] | final HPLC purity [2] |
| --- | --- | --- |
| 1-Ahx-[ProProGly]7—NH2 | >99% |  |
| 1-[ProHypGly]3-AopProGly-[ProHypGly]3—NH2 | >97% |  |
| MRA_3069-Ahx-(ChaR)3—NH2 |  | >95% |
| PB-Ahx-(ChaR)3—NH2 |  | >99% |
